In paper PMC7708074:
No constants are given. Whether binding was seen depends on the method and setting. In cells and extracts the contact can be indirect. Here binding means that the protein was enriched with, or labelled near, the bait; the list need not be complete. Tags and fused reporters may be left off the sequences shown.

Protein sequences, listed by entry. Tags and fused reporters are not part of them.
UniProt P15646: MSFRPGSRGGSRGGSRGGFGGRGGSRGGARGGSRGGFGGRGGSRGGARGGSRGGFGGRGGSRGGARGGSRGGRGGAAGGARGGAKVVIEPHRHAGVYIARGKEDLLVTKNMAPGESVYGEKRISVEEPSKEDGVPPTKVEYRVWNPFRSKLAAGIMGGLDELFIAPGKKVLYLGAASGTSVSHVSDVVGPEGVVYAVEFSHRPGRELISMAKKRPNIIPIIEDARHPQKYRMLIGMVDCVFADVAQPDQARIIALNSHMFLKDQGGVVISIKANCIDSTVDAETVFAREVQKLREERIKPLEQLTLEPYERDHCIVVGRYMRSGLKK

B1: Upf1 (endogenous, co-purified with tagged Rbs1) (protein, UniProt P30771 1-971)
chain: MVGSGSHTPYDISNSPSDVNVQPATQLNSTLVEDDDVDNQLFEEAQVTETGFRSPSASDNSCAYCGIDSAKCVIKCNSCKKWFCNTKNGTSSSHIVNHLVLSHHNVVSLHPDSDLGDTVLECYNCGRKNVFLLGFVSAKSEAVVVLLCRIPCAQTKNANWDTDQWQPLIEDRQLLSWVAEQPTEEEKLKARLITPSQISKLEAKWRSNKDATINDIDAPEEQEAIPPLLLRYQDAYEYQRSYGPLIKLEADYDKQLKESQALEHISVSWSLALNNRHLASFTLSTFESNELKVAIGDEMILWYSGMQHPDWEGRGYIVRLPNSFQDTFTLELKPSKTPPPTHLTTGFTAEFIWKGTSYDRMQDALKKFAIDKKSISGYLYYKILGHQVVDISFDVPLPKEFSIPNFAQLNSSQSNAVSHVLQRPLSLIQGPPGTGKTVTSATIVYHLSKIHKDRILVCAPSNVAVDHLAAKLRDLGLKVVRLTAKSREDVESSVSNLALHNLVGRGAKGELKNLLKLKDEVGELSASDTKRFVKLVRKTEAEILNKADVVCCTCVGAGDKRLDTKFRTVLIDESTQASEPECLIPIVKGAKQVILVGDHQQLGPVILERKAADAGLKQSLFERLISLGHVPIRLEVQYRMNPYLSEFPSNMFYEGSLQNGVTIEQRTVPNSKFPWPIRGIPMMFWANYGREEISANGTSFLNRIEAMNCERIITKLFRDGVKPEQIGVITPYEGQRAYILQYMQMNGSLDKDLYIKVEVASVDAFQGREKDYIILSCVRANEQQAIGFLRDPRRLNVGLTRAKYGLVILGNPRSLARNTLWNHLLIHFREKGCLVEGTLDNLQLCTVQLVRPQPRKTERPMNAQFNVESEMGDFPKFQDFDAQSMVSFSGQIGDFGNAFVDNTELSSYINNEYWNFENFKSAFSQKQNRNEIDDRNLYQEEASHLNSNFARELQREEQKHELSKDFSNLGI
B2: Nop6 (protein, UniProt Q07623 1-225)
chain: MGSEEDKKLTKKQLKAQQFRKSKEEKDQEKDVKKEQAPEGKRPNSAAGNDGEEPVKKKRKTRRGRGGKGKNGKKGNRFIVFVGSLPRDITAVELQNHFKNSSPDQIRLRADKGIAFLEFDADKDRTGIQRRMDIALLQHGTLLKEKKINVELTVGGGGNSQERLEKLKNKNIKLDEERKERLTKMINDGNQKKIAKTTATAAQTSGTDNKPVPAGIHPDRAKLLK

Target: T1, green fluorescent protein-tagged Rbs1 (S. cerevisiae) (UniProt Q05672)
T1 sequence: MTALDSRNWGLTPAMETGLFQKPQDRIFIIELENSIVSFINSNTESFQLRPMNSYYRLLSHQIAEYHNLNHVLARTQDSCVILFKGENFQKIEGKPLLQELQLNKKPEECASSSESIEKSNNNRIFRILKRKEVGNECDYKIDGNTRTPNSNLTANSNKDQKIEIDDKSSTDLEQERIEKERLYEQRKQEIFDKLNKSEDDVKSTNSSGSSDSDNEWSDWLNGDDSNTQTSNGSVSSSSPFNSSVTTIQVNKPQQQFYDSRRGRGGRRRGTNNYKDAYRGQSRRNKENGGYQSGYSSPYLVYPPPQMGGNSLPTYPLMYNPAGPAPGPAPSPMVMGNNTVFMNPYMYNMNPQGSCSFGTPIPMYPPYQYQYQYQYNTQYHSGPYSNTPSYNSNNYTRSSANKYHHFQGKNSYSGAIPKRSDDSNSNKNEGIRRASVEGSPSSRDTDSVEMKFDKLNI
Assay: affinity purification with mass spectrometry; affinity purification of green fluorescent protein-tagged Rbs1 followed by quantitative mass spectrometry; relative amounts by MaxQuant (data of ref. 11)

Molecule | binding
Nop1 (from UniProt P15646 1-327) | binds
B1 | binds
B2 | binds
